These results are taken from article PMC10239115.

The test concerns the target T1, Flag-tagged Kremen2 (Kringle containing transmembrane protein 2) (UniProt Q8NCW0).
T1 sequence: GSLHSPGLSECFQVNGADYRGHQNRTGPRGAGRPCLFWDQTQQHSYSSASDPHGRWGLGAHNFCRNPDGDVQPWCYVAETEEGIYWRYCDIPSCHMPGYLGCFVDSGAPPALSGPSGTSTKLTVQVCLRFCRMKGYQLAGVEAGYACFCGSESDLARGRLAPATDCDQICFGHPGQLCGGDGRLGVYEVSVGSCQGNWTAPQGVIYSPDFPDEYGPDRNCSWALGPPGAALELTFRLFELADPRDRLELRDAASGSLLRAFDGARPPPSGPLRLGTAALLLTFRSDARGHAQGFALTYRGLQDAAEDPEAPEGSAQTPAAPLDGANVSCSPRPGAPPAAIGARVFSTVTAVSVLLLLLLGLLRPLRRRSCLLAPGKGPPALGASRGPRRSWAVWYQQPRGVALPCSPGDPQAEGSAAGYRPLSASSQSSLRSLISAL
As to the kind of experiment: co-IP; HEK293T transfected with Flag-Krm2; lysate in IP lysis buffer incubated with protein A/G magnetic beads and anti-Flag or normal IgG overnight at 4 °C; blots for EGFR, AKT, STAT3, SOCS3.

These are yes or no findings as the source states them, for the method shown. In cells and extracts the contact can be indirect. Where a sequence is shown, tags or fusion partners need not be part of it.

Consider “AKT, endogenous in HEK293T (human (endogenous in HEK293T)) (enzyme)”, for which the binding entry is recorded as “no binding”.
